Data as given in PubChem BioAssay AID493246 (Drosophila RNAi Screening Center, 2011)

Assay: 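Genome-wide search for dsRNAs that reduce cell number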 (primary screen)
System: Drosophila Kc and S2R+ cells
Reagents: long dsRNA against Drosophila genes
Read-out: 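Cell number per well after knock-down, printed as raw plate values; calls were based on per-plate z-scores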
Reading the numbers: Kc cell number and S2R+ cell number: higher = more cells remaining
Active means: 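Active when the per-plate z-score of cell number is 3 or more in the direction of fewer cells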
The deposit covers about 21,000 reagents; below is a random part of those that have a named target and a result. Over the whole deposit, 429 (2%) got an active call. 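Values are raw and not normalised between plates; calls rest on per-plate z-scores that were not deposited.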 Names joined by + are all predicted targets of the reagent. Reagent sequences are not shown. Not given: the amount of reagent, the time to read-out.

target gene | amplicon | Kc cell number, rep 1 | Kc cell number, rep 2 | S2R+ cell number, rep 1 | S2R+ cell number, rep 2 | Call
ste24a (prenyl protease type I) | DRSC07314 | 1.63e6 | 1.58e6 | 1.22e6 | 1.33e6 | inactive
Lapsyn (Leucine-rich repeat activity-regulated protein at synapses) | DRSC04249 | 1.45e6 | 1.54e6 | 1.20e6 | 1.32e6 | inactive
kat-60L1 (katanin p60-like 1) | DRSC12184 | 1.47e6 | 1.53e6 | 1.26e6 | 1.35e6 | inactive
Gr39b (Gustatory receptor 39b) | DRSC01848 | 5.56e5 | – | 8.36e5 | – | inactive
CG9875 | DRSC04585 | 1.63e6 | 1.65e6 | 1.30e6 | 1.41e6 | inactive
Tbcb (Tubulin-binding cofactor B) | DRSC06067 | 1.41e6 | 1.39e6 | 1.07e6 | 1.10e6 | inactive
CG17219 | DRSC00486 | 1.64e6 | 1.65e6 | 1.15e6 | 1.37e6 | inactive
Cyp4aa1 (Cytochrome P450 4aa1) | DRSC07368 | 1.71e6 | 1.66e6 | 1.27e6 | 1.42e6 | inactive
emb (embargoed) | DRSC03528 | 1.09e6 | 1.26e6 | 5.58e5 | 6.87e5 | inactive
boil (boilerman) | DRSC17872 | 1.53e6 | 1.54e6 | 1.12e6 | 1.24e6 | inactive
Ugt303A1 (UDP-glycosyltransferase family 303 member A1) | DRSC15641 | 1.63e6 | 1.54e6 | 1.32e6 | 1.37e6 | inactive
CG2218 | DRSC15428 | 5.48e5 | – | 8.86e5 | – | inactive
CG15578 | DRSC18066 | 1.58e6 | 1.59e6 | 1.03e6 | 1.13e6 | inactive
Cpr76Bd (Cuticular protein 76Bd) | DRSC11063 | 1.42e6 | 1.75e6 | 1.25e6 | 1.39e6 | inactive
AttC (Attacin-C) | DRSC06886 | 1.49e6 | 1.49e6 | 1.19e6 | 1.34e6 | inactive
CG14187 | DRSC10186 | 1.46e6 | 1.36e6 | 1.36e6 | 1.42e6 | inactive
CG31125 | DRSC13684 | 1.35e6 | 1.64e6 | 1.06e6 | 8.41e5 | inactive
CG15373 | DRSC19663 | 1.47e6 | 1.46e6 | 1.08e6 | 1.07e6 | inactive
CG9664 | DRSC00725 | 1.33e6 | 1.35e6 | 8.58e5 | 1.02e6 | inactive
qua (quail) | DRSC03598 | 1.55e6 | 1.64e6 | 1.22e6 | 1.40e6 | inactive
BubR1 (Bub1-related kinase) | DRSC04838 | 1.49e6 | 1.54e6 | 1.04e6 | 1.24e6 | inactive
cac (cacophony) | DRSC19743 | 1.54e6 | 1.48e6 | 1.05e6 | 1.15e6 | inactive
cac (cacophony) | DRSC20354 | 5.80e5 | – | 8.33e5 | – | inactive
CG7083 | DRSC11136 | 1.56e6 | 1.44e6 | 1.09e6 | 1.13e6 | inactive
Deaf1 (Deformed epidermal autoregulatory factor-1) | DRSC11143 | 1.34e6 | 1.41e6 | 9.87e5 | 1.14e6 | inactive
CG10513 | DRSC14248 | 5.92e5 | – | 7.56e5 | – | inactive
CG12360 (retired record) | DRSC14505 | 1.58e6 | 1.61e6 | 1.03e6 | 1.21e6 | inactive
Polr1F (RNA polymerase I subunit F) | DRSC02278 | 1.23e6 | 1.35e6 | 5.57e5 | 5.43e5 | inactive
trh (trachealess) | DRSC08355 | 1.20e6 | 1.15e6 | 1.08e6 | 1.25e6 | inactive
trh (trachealess) | DRSC08739 | 1.19e6 | 1.23e6 | 1.10e6 | 1.26e6 | inactive
CG8173 | DRSC20088 | 1.48e6 | 1.43e6 | 1.09e6 | 1.13e6 | inactive
CG12880 | DRSC14568 | 5.11e5 | – | 8.19e5 | – | inactive
fs(2)ltoPP43 (female sterile (2) ltoPP43) | DRSC02067 | 1.64e6 | 1.70e6 | 1.13e6 | 2.58e5 | inactive
CG32695 | DRSC17975 | 1.86e6 | 1.92e6 | 1.12e6 | 1.30e6 | inactive
kappaB-Ras + CG30503 | DRSC06619 | 1.53e6 | 1.56e6 | 1.23e6 | 1.35e6 | inactive
kappaB-Ras + CG30503 | DRSC07636 | 1.58e6 | 1.64e6 | 1.23e6 | 1.34e6 | inactive
Dcr-2 (Dicer-2) | DRSC06992 | 1.62e6 | 1.91e6 | 1.35e6 | 1.50e6 | inactive
Mob4 (MOB kinase activator 4) | DRSC04993 | 1.35e6 | 1.43e6 | 1.21e6 | 1.18e6 | inactive
CG8993 | DRSC08616 | 1.49e6 | 1.37e6 | 1.02e6 | 1.17e6 | inactive
pb (proboscipedia) | DRSC12409 | 1.43e6 | 1.47e6 | 1.06e6 | 1.24e6 | inactive
pb (proboscipedia) | DRSC12629 | 1.24e6 | 1.43e6 | 1.16e6 | 1.26e6 | inactive
rb (ruby) | DRSC18826 | 1.70e6 | 1.65e6 | 1.10e6 | 1.24e6 | inactive
Arl4 (ADP ribosylation factor-like 4) | DRSC17156 | 1.53e6 | 1.44e6 | 1.01e6 | 1.11e6 | inactive
unc-13-4A | DRSC10201 | 1.49e6 | 1.28e6 | 1.13e6 | 1.20e6 | inactive
unc-13-4A | DRSC10202 | 1.44e6 | 1.35e6 | 1.08e6 | 1.14e6 | inactive
unc-13-4A | DRSC10203 | 6.03e5 | 6.81e5 | 4.48e5 | 5.61e5 | active
unc-13-4A | DRSC11013 | 1.41e6 | 1.32e6 | 1.10e6 | 1.21e6 | inactive
CG42816 + CG42815 | DRSC11230 | 1.31e6 | 1.42e6 | 1.25e6 | 1.32e6 | inactive
Fbp2 (Fat body protein 2) | DRSC03327 | 1.32e6 | 1.40e6 | 1.15e6 | 1.14e6 | inactive
CG2186 | DRSC19838 | 5.88e5 | – | 8.17e5 | – | inactive
CG13994 | DRSC02326 | 1.60e6 | 1.50e6 | 1.12e6 | 1.34e6 | inactive
Gr61a (Gustatory receptor 61a) | DRSC08358 | 1.22e6 | 1.33e6 | 1.08e6 | 1.31e6 | inactive
CG13711 | DRSC08320 | 1.35e6 | 1.34e6 | 1.10e6 | 1.21e6 | inactive
CDK2AP1 (CDK2-associated protein 1) | DRSC19800 | 6.33e5 | – | 6.76e5 | – | inactive
Cep97 (Centrosomal protein 97kDa) | DRSC00637 | 1.38e6 | 1.36e6 | 9.90e5 | 1.05e6 | inactive
Ir8a (Ionotropic receptor 8a) | DRSC17817 | 1.58e6 | 1.53e6 | 1.09e6 | 1.18e6 | inactive
Ir8a (Ionotropic receptor 8a) | DRSC17869 | 1.67e6 | 1.51e6 | 1.02e6 | 1.13e6 | inactive
CG17807 | DRSC04296 | 1.25e6 | 1.35e6 | 1.24e6 | 1.12e6 | inactive
Culd (CUB and LDLa domain) | DRSC10262 | 1.28e6 | 1.43e6 | 1.30e6 | 9.21e5 | inactive

5 of these entries, reformatted.
Cep97 (Centrosomal protein 97kDa) [DRSC00637]
- Kc cell number, rep 1: 1.38e6
- Kc cell number, rep 2: 1.36e6
- S2R+ cell number, rep 1: 9.90e5
- S2R+ cell number, rep 2: 1.05e6
- Call: inactive

Ir8a (Ionotropic receptor 8a) [DRSC17817]
- Kc cell number, rep 1: 1.58e6
- Kc cell number, rep 2: 1.53e6
- S2R+ cell number, rep 1: 1.09e6
- S2R+ cell number, rep 2: 1.18e6
- Call: inactive

Ir8a (Ionotropic receptor 8a) [DRSC17869]
- Kc cell number, rep 1: 1.67e6
- Kc cell number, rep 2: 1.51e6
- S2R+ cell number, rep 1: 1.02e6
- S2R+ cell number, rep 2: 1.13e6
- Call: inactive

CG17807 [DRSC04296]
- Kc cell number, rep 1: 1.25e6
- Kc cell number, rep 2: 1.35e6
- S2R+ cell number, rep 1: 1.24e6
- S2R+ cell number, rep 2: 1.12e6
- Call: inactive

Culd (CUB and LDLa domain) [DRSC10262]
- Kc cell number, rep 1: 1.28e6
- Kc cell number, rep 2: 1.43e6
- S2R+ cell number, rep 1: 1.30e6
- S2R+ cell number, rep 2: 9.21e5
- Call: inactive
